Test results: the supplement of paper PMC10849652
The list shows a part of the results. Residues, ends and D or L forms follow the SMILES beside them. *: point of attachment. Cbz = O=C(OCc1ccccc1)*

Sequences of proteins named here, by UniProt entry; tags and fusion partners are left off. A change or cut given only in a name is not applied to a line headed by its entry.
UniProt Q8NBS9: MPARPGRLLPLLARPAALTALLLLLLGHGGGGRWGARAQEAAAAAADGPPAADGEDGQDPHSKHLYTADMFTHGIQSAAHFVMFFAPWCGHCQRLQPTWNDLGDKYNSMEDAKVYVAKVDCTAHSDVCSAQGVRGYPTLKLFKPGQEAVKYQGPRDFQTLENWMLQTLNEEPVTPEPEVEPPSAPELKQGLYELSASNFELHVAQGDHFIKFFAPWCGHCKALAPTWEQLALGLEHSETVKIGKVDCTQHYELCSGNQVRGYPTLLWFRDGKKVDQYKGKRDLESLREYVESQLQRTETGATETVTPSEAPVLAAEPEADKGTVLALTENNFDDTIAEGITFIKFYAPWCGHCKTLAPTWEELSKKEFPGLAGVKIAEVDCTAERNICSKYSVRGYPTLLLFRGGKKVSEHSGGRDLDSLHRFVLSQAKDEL
UniProt P0DPH7, whole entry, looked up: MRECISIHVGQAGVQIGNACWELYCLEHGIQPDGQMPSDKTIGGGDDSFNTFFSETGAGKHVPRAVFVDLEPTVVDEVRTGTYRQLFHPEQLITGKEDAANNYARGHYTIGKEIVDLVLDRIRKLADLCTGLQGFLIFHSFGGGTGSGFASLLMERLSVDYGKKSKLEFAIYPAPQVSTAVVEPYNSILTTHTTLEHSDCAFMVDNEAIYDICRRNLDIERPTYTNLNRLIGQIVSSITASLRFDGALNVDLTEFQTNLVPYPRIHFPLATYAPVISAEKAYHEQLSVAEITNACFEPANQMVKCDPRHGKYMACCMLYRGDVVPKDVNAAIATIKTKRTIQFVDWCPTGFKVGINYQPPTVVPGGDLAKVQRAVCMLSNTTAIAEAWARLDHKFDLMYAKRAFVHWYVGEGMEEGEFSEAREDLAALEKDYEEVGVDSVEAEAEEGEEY
UniProt Q9C0C9: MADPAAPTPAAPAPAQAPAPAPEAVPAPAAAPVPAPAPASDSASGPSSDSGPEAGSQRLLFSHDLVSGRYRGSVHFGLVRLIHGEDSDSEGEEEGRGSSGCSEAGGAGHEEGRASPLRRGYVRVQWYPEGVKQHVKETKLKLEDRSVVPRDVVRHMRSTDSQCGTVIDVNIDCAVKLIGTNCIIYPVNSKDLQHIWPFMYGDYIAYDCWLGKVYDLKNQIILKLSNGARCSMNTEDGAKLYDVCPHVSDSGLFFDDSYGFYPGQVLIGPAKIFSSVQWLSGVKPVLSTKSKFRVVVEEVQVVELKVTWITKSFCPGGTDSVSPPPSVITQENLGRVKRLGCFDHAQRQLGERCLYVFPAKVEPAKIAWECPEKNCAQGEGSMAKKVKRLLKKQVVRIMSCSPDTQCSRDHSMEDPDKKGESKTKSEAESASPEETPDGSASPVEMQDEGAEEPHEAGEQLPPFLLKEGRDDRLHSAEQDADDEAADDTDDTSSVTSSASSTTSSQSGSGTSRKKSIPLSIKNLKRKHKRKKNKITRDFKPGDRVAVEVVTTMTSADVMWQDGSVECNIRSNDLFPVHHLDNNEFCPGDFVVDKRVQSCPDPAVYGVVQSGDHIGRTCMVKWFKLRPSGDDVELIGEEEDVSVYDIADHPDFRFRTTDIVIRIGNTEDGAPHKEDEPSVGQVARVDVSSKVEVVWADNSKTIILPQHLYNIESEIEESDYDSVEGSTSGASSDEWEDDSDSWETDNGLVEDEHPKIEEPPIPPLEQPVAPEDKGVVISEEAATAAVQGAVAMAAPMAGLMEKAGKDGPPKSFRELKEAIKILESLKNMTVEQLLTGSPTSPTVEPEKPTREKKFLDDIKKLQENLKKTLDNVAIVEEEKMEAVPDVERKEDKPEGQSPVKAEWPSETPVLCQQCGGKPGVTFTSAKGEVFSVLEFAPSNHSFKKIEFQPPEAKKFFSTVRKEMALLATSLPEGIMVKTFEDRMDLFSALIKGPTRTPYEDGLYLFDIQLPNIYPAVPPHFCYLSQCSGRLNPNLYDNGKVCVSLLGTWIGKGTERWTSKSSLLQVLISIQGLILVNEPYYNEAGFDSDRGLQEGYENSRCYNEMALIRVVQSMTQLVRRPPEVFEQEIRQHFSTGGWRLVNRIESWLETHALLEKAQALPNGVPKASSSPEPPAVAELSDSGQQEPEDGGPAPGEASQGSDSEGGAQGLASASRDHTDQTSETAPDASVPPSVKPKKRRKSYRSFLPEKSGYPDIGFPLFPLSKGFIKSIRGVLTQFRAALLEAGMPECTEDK
UniProt P68363, whole entry, looked up: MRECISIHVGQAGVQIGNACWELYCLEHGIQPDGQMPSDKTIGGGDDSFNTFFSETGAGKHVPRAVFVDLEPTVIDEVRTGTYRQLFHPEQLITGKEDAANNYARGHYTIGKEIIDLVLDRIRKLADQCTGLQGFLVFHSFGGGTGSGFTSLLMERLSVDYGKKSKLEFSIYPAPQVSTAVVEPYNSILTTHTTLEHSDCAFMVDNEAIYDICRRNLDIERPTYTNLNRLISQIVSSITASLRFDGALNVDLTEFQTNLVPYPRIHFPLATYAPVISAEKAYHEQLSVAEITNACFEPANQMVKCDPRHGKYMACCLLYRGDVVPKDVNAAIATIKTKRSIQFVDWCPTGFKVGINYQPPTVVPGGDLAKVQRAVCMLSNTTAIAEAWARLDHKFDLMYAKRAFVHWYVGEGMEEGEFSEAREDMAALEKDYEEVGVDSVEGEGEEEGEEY
UniProt Q96J42: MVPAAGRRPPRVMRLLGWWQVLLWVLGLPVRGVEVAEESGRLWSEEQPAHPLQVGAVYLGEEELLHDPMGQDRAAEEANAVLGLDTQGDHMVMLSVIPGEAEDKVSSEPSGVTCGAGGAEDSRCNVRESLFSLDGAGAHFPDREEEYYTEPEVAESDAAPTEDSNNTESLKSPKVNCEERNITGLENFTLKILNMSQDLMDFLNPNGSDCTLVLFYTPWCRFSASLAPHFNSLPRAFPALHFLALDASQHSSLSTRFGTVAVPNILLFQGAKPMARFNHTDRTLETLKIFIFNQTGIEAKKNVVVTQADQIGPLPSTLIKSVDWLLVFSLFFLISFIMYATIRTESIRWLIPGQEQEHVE
UniProt Q16222: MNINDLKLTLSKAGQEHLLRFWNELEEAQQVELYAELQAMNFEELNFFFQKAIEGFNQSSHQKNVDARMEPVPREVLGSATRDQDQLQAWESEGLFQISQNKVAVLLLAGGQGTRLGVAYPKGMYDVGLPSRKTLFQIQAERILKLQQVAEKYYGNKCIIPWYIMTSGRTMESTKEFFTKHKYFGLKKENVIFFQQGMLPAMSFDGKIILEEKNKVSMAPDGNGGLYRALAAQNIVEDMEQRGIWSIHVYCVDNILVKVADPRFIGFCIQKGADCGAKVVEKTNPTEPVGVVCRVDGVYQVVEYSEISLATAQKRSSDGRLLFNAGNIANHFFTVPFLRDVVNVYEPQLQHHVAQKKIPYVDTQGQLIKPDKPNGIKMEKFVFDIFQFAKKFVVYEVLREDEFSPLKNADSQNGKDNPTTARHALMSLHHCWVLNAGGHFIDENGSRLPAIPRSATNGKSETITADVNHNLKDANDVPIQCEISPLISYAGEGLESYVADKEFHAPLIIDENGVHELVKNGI
UniProt P68036, whole entry, looked up: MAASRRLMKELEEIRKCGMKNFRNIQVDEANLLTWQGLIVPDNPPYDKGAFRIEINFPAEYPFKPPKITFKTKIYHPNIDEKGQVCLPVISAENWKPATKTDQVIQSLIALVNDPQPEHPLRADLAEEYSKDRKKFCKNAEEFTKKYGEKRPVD
UniProt P40222: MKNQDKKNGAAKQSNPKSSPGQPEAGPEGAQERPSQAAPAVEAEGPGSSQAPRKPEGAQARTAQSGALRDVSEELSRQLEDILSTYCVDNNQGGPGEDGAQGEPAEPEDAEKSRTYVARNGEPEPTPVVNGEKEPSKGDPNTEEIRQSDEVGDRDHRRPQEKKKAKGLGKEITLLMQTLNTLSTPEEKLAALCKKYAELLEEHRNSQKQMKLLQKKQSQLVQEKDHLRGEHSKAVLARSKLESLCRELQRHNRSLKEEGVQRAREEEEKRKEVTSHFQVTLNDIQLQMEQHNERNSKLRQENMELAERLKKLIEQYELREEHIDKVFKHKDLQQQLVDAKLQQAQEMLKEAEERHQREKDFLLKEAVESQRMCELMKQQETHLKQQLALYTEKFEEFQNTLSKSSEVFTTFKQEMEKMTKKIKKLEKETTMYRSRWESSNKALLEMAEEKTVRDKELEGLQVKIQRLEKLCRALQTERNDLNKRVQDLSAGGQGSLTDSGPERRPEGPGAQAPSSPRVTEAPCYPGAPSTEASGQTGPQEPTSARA
UniProt Q8NG68: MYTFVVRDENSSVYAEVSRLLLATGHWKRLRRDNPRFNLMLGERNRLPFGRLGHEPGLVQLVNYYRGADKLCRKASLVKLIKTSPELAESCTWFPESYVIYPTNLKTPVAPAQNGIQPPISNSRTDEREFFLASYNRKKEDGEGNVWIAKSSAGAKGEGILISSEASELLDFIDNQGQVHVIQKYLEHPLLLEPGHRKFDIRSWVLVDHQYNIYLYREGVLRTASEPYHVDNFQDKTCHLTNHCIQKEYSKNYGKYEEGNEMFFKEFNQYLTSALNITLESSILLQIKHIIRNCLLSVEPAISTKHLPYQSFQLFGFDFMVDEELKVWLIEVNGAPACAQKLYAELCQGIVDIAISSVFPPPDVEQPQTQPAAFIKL
UniProt Q9UJT0: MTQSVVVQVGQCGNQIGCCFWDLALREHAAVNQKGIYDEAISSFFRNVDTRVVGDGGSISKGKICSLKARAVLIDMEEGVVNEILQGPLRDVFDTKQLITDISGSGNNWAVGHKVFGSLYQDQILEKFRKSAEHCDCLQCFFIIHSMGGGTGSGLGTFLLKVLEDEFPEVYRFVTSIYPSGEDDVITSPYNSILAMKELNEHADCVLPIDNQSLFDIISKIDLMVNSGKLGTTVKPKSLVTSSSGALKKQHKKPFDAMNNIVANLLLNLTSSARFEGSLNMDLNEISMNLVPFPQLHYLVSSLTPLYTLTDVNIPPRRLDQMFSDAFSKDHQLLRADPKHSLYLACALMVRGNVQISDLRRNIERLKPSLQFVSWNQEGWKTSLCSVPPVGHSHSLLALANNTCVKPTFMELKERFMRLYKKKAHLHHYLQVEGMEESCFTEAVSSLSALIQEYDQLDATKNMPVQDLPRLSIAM
UniProt Q3KQV9: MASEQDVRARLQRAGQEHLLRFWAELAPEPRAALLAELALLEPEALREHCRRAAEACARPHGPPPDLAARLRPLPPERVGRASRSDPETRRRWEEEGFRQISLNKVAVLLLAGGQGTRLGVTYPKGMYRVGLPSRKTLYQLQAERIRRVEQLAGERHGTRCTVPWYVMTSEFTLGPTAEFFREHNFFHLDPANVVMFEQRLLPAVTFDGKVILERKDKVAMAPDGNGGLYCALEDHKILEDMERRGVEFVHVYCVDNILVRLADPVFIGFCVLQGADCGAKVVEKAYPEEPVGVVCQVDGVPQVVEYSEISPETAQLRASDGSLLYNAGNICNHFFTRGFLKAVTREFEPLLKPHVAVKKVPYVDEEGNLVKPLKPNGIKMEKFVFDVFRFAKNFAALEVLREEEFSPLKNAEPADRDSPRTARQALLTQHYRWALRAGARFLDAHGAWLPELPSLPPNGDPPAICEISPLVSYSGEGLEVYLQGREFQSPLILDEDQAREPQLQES
UniProt O95881: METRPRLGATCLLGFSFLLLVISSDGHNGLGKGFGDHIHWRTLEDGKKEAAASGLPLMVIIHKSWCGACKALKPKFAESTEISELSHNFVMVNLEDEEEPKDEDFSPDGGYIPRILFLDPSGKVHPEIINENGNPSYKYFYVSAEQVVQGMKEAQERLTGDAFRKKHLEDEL
UniProt Q13454: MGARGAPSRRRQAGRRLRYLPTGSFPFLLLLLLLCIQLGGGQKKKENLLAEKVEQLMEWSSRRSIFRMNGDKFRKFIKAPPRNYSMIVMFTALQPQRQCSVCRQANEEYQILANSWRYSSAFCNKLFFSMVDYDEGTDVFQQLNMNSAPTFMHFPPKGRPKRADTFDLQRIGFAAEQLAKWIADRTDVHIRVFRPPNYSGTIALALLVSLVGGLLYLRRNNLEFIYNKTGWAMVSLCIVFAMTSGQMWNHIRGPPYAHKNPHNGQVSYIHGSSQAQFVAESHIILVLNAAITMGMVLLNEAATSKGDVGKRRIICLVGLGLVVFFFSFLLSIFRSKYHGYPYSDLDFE
UniProt Q15631: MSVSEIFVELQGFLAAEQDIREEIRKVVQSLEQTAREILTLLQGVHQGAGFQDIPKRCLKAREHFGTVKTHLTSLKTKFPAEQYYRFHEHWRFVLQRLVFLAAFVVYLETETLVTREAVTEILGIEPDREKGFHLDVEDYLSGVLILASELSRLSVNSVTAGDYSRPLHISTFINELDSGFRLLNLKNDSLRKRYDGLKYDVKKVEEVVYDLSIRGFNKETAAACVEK
UniProt Q969M7: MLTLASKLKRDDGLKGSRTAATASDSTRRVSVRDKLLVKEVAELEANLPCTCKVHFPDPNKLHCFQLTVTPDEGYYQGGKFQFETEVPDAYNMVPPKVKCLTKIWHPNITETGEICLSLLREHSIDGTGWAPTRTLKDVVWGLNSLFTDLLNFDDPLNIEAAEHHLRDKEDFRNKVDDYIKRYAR

Legend:
Assay in all cases: log2 fold change, soluble protein after heating vs DMSO (PISA); higher = thermal stabilisation; K562 cells, 10 uM, 30 min; active = over 0.2 and 3.5 SD of the protein, either way, in both replicates (recomputed)
IRAK-1-4 Inhibitor I = compound: C1COCCN1CCN2C3=CC=CC=C3N=C2NC(=O)C4=CC(=CC=C4)[N+](=O)[O-] [IRAK-1-4 Inhibitor I]
How it was run: (§1)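 K562 cells (2×10^6 cells/mL) were treated with 10 μM compound for 30 min, and aliquots were heated for 3 min over 48°C-58°C. Pooled aliquots were extracted in PBS with 0.5% NP-40 at 4°C, and the supernatant after 21,000xg for 90 min was measured by TMTpro 16plex LC-MS/MS with channel sums equalised. Reported thermal stability, relative to control samples and from duplicates, is a log2 fold change.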

ibrutinib = compound: C=CC(=O)N1CCC[C@@H](n2nc(-c3ccc(Oc4ccccc4)cc3)c3c(N)ncnc32)C1 [ibrutinib]
How it was run: as §1

[1] = compound: CC(=O)c1cnc2ccc(-c3cc(Cl)c(O)c(Cl)c3)nc2c1N[C@H]1CC[C@H](CN(C)C)CC1
How it was run: as §1

ralimetinib = compound: CC(C)(C)Cn1c(N)nc2ccc(-c3[nH]c(C(C)(C)C)nc3-c3ccc(F)cc3)nc21 [ralimetinib]
How it was run: as §1

[2] = compound: CC(C)(O)CC(=O)NCCn1ccc2ncnc(Nc3ccc(Oc4cccc(C(F)(F)F)c4)c(Cl)c3)c21
How it was run: as §1

[3] = compound: CC(C)C1=C2N=C(C=C(N2N=C1)NCC3=CC=CC=C3)NCCCCCCN
How it was run: as §1

[4] = compound: CC(C)C[C@@H](C=O)NC(=O)[C@H](CC(C)C)NC(=O)[C@H](CC(C)C)NC(=O)OCc1ccccc1
How it was run: as §1

pinometostat = compound: CC(C)N(C[C@H]1O[C@@H](n2cnc3c(N)ncnc32)[C@H](O)[C@@H]1O)[C@H]1C[C@@H](CCc2nc3cc(C(C)(C)C)ccc3[nH]2)C1 [pinometostat]
How it was run: as §1

[5] = compound: CC1=C(C(CC(=O)N1)C2=CC=C(C=C2)C(F)(F)F)C(=O)NC3=C(C=C4C(=C3)C=NN4)F
How it was run: as §1

[6] = compound: CC1=C(C2=C(C=C1)C(=O)C3=CC=CC=C3N2CCCN)C
How it was run: as §1

Measured: log2 fold change

TXNDC5 (UniProt Q8NBS9)
inactive: IRAK-1-4 Inhibitor I 0.011 | ibrutinib -0.013 | [1] 0.006 | ralimetinib -0.057 | [2] 0.029 | [3] 0.024 | [4] -0.035 | pinometostat -0.063 | [5] 0.005 | [6] -0.01

TSEN54 (UniProt Q7Z6J9)
inactive: IRAK-1-4 Inhibitor I 0.007 | ibrutinib -0.002 | [1] -0.122 | ralimetinib -0.153 | [2] 0.004 | [3] -0.244 | [4] 0.046 | pinometostat 0.043 | [5] 0.104 | [6] 0.08

UBAP2 (UniProt Q5T6F2)
inactive: IRAK-1-4 Inhibitor I 0.036 | ibrutinib 0.027 | [1] -0.001 | ralimetinib -0.044 | [2] 0.042 | [3] 0.016 | [4] 0.031 | pinometostat -0.013 | [5] -0.007 | [6] -0.042

TSNAX (UniProt Q99598)
inactive: IRAK-1-4 Inhibitor I 0.048 | ibrutinib 0.04 | [1] 0.005 | ralimetinib -0.039 | [2] -0.033 | [3] 0.062 | [4] -0.009 | pinometostat -0.041 | [5] 0.018 | [6] 0.009

TUBB6 (UniProt Q9BUF5)
inactive: IRAK-1-4 Inhibitor I 0.067 | ibrutinib 0.047 | [1] -0.022 | ralimetinib -0.032 | [2] -0.009 | [3] -0.012 | [4] 0.015 | pinometostat 0.002 | [5] 0.016 | [6] 0.051

TUBA3C (UniProt P0DPH7)
inactive: IRAK-1-4 Inhibitor I 0.053 | ibrutinib 0.029 | [1] 0.051 | ralimetinib -0.04 | [2] -0.053 | [3] 0.032 | [4] -0.004 | pinometostat 0.001 | [5] 0.081 | [6] 0.011

TUBB4A (UniProt P04350)
inactive: IRAK-1-4 Inhibitor I 0.062 | ibrutinib 0.168 | [1] 0.009 | ralimetinib 0.111 | [2] -0.066 | [3] 0.008 | [4] -0.074 | pinometostat -0.037 | [5] -0.017 | [6] 0.16

2 entries drawn at random from the list so far, as already listed:
TUBA3C (UniProt P0DPH7)
inactive: IRAK-1-4 Inhibitor I 0.053 | ibrutinib 0.029 | [1] 0.051 | ralimetinib -0.04 | [2] -0.053 | [3] 0.032 | [4] -0.004 | pinometostat 0.001 | [5] 0.081 | [6] 0.011

TUBB6 (UniProt Q9BUF5)
inactive: IRAK-1-4 Inhibitor I 0.067 | ibrutinib 0.047 | [1] -0.022 | ralimetinib -0.032 | [2] -0.009 | [3] -0.012 | [4] 0.015 | pinometostat 0.002 | [5] 0.016 | [6] 0.051

(listing goes on)

TUFM (UniProt P49411)
inactive: IRAK-1-4 Inhibitor I 0.091 | ibrutinib 0.035 | [1] -0.139 | ralimetinib -0.052 | [2] -0.139 | [3] -0.046 | [4] 0.05 | pinometostat -0.023 | [5] -0.021 | [6] 0.147

TXNDC17 (UniProt Q9BRA2)
inactive: IRAK-1-4 Inhibitor I 0.01 | ibrutinib 0.056 | [1] 0.039 | ralimetinib 0.04 | [2] -0.012 | [3] -0.028 | [4] -0.066 | pinometostat -0.031 | [5] 0.006 | [6] -0.021

TUBB1 (UniProt Q9H4B7)
inactive: IRAK-1-4 Inhibitor I 0.103 | ibrutinib 0.032 | [1] -0.002 | ralimetinib 0.031 | [2] -0.007 | [3] 0.009 | [4] -0.064 | pinometostat -0.075 | [5] -0.051 | [6] 0.02

UBE2O (UniProt Q9C0C9)
inactive: IRAK-1-4 Inhibitor I 0.019 | ibrutinib 0.007 | [1] 0.005 | ralimetinib 0.088 | [2] -0.093 | [3] 0.031 | [4] -0.035 | pinometostat 0.002 | [5] 0.01 | [6] 0.042

TUBA1B (UniProt P68363)
inactive: IRAK-1-4 Inhibitor I 0.027 | ibrutinib -0.001 | [1] 0.002 | ralimetinib -0.016 | [2] -0.095 | [3] 0.012 | [4] -0.037 | pinometostat -0.043 | [5] -0.001 | [6] 0.001

TTN isoform 12 (UniProt Q8WZ42)
inactive: IRAK-1-4 Inhibitor I 0.035 | ibrutinib 0 | [1] -0.086 | ralimetinib -0.124 | [2] -0.088 | [3] 0.074 | [4] 0.112 | pinometostat 0.019 | [5] 0.067 | [6] 0.076

TSSC4 (UniProt Q9Y5U2)
inactive: IRAK-1-4 Inhibitor I -0.025 | ibrutinib 0.013 | [1] 0.053 | ralimetinib 0.201 | [2] 0.031 | [3] 0.193 | [4] 0.147 | pinometostat 0.022 | [5] 0.157 | [6] -0.039

TXNDC15 (UniProt Q96J42)
inactive: IRAK-1-4 Inhibitor I 0.091 | ibrutinib 0.039 | [1] 0.066 | ralimetinib -0.024 | [2] 0.036 | [3] -0.021 | [4] 0.252 | pinometostat -0.109 | [5] 0.061 | [6] -0.009

UAP1 (UniProt Q16222)
inactive: IRAK-1-4 Inhibitor I 0.077 | ibrutinib 0.006 | [1] 0.014 | ralimetinib -0.076 | [2] -0.028 | [3] -0.024 | [4] 0.009 | pinometostat -0.023 | [5] -0.026 | [6] 0.032

UBE2L3 isoform 3 (UniProt P68036)
inactive: IRAK-1-4 Inhibitor I 0.032 | ibrutinib -0.003 | [1] 0.05 | ralimetinib -0.03 | [2] 0.043 | [3] 0.074 | [4] 0.005 | pinometostat -0.085 | [5] -0.008 | [6] -0.032

UBE2V2 (UniProt Q15819)
inactive: IRAK-1-4 Inhibitor I 0.066 | ibrutinib 0.022 | [1] -0.026 | ralimetinib -0.064 | [2] -0.003 | [3] 0.032 | [4] 0.026 | pinometostat -0.044 | [5] 0.017 | [6] 0.03

TXLNA (UniProt P40222)
inactive: IRAK-1-4 Inhibitor I -0.008 | ibrutinib -0.014 | [1] 0.002 | ralimetinib -0.027 | [2] -0.012 | [3] 0.077 | [4] 0.014 | pinometostat -0.051 | [5] -0.007 | [6] 0.052

TTL (UniProt Q8NG68)
inactive: IRAK-1-4 Inhibitor I 0.047 | ibrutinib 0.063 | [1] -0.009 | ralimetinib -0.071 | [2] 0.038 | [3] -0.019 | [4] 0.013 | pinometostat 0.014 | [5] -0.049 | [6] -0.021

TUBE1 (UniProt Q9UJT0)
inactive: IRAK-1-4 Inhibitor I -0.006 | ibrutinib 0.126 | [1] -0.045 | ralimetinib -0.011 | [2] 0.002 | [3] 0.087 | [4] 0.021 | pinometostat 0.07 | [5] 0.012 | [6] -0.005

UAP1L1 (UniProt Q3KQV9)
inactive: IRAK-1-4 Inhibitor I 0.05 | ibrutinib -0.008 | [1] -0.005 | ralimetinib -0.083 | [2] -0.032 | [3] -0.002 | [4] -0.023 | pinometostat 0.019 | [5] -0.005 | [6] 0.128

TXNDC12 (UniProt O95881)
inactive: IRAK-1-4 Inhibitor I -0.01 | ibrutinib -0.018 | [1] -0.001 | ralimetinib 0.027 | [2] 0.011 | [3] 0.026 | [4] -0.017 | pinometostat -0.011 | [5] 0.007 | [6] 0.02

TUSC3 isoform 2 (UniProt Q13454)
inactive: IRAK-1-4 Inhibitor I -0.026 | ibrutinib 0.084 | [1] 0.035 | ralimetinib 0.026 | [2] -0.01 | [3] -0.056 | [4] 0.118 | pinometostat 0.143 | [5] 0.05 | [6] 0.001

TUBGCP3 (UniProt Q96CW5)
inactive: IRAK-1-4 Inhibitor I -0.14 | ibrutinib -0.186 | [1] -0.043 | ralimetinib 0.11 | [2] 0.005 | [3] -0.078 | [4] 0.234 | pinometostat 0.149 | [5] -0.056 | [6] 0.196

TSN (UniProt Q15631)
inactive: IRAK-1-4 Inhibitor I 0.025 | ibrutinib 0.004 | [1] 0.01 | ralimetinib 0.023 | [2] -0.009 | [3] 0.059 | [4] -0.1 | pinometostat -0.074 | [5] 0.024 | [6] 0.034

UBE2F isoform 2 (UniProt Q969M7)
inactive: IRAK-1-4 Inhibitor I 0.045 | ibrutinib 0.034 | [1] 0.054 | ralimetinib 0.033 | [2] -0.056 | [3] -0.013 | [4] 0.04 | pinometostat -0.022 | [5] 0.014 | [6] 0.022

TSPO (UniProt P30536)
inactive: IRAK-1-4 Inhibitor I 0.009 | ibrutinib 0.001 | [1] -0.104 | ralimetinib -0.093 | [2] 0.012 | [3] 0.029 | [4] -0.074 | pinometostat 0.004 | [5] -0.038 | [6] 0.004

TUBB6 (UniProt K7ES63)
inactive: IRAK-1-4 Inhibitor I 0.029 | ibrutinib -0.069 | [1] -0.135 | ralimetinib 0.006 | [2] 0.116 | [3] 0.011 | [4] -0.004 | pinometostat -0.106 | [5] -0.004 | [6] -0.035
